# Reference: PubChem BioAssay AID504808 (Drosophila RNAi Screening Center, 2011)
# Test: 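Genes whose loss lifts activity of an E2F-responsive reporter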 (primary screen)
# System: Drosophila S2 cells
# Reagents: long dsRNA against Drosophila genes
# Read-out: 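Firefly luciferase driven by E2F sites, normalised to Renilla luciferase on the same minimal promoter, measured by plate reader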
# Direction: E2F firefly: higher = more E2F reporter activity; Renilla normaliser: higher = more normaliser reporter signal
# Active means: 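a knock-down counted as active when the firefly/Renilla E2F signal rose above 50%, a threshold chosen arbitrarily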
# In all, the deposit lists about 21,000 reagents; this is a random part of those with a known target gene and a result. Of all reagents, 18 (0.084%) got an active call. 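Raw counts without plate normalisation, one of two replicates; the ratio scores behind the calls were not deposited.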 A number with no mark means an inactive call. The numbers tell different reagents against one gene apart. A plus sign joins genes that one reagent is predicted to hit. Not stated in the record: the amount of reagent, the time to read-out.
Target gene,dsRNA no.,"E2F firefly, rep 1","Renilla normaliser, rep 1"
CG42813 + CG42814,1,1684,952
CG42813 + CG42814,2,1.19e5,6682
CG8586,1,2826,218
Spn77Ba,1,81018,3788
px,1,71111,3376
CG34202,1,1.72e5,5699
hec,1,58882,4657
CG13786,1,1.49e5,5353
CG14695,1,1.35e5,6106
D2hgdh,1,1811,812
HDAC6,1,7909,696
BBS4,1,54725,3147
Alp8,1,99681,3473
RpL21,1,73983,5417
CG6592,1,92233,3559
laf,1,1.14e5,5366
mei-P26,1,5956,784
Pus1,1,1.32e5,6897
Sirt2,1,1.21e5,6790
CG5265,1,1.28e5,6720
CG13375,1,1.20e5,5849
Cht5,1,78551,3379
Fas2,1,92839,2604
Fas2,2,86257,2768
Fas2,3,1903,940
prd,1,86155,3972
grim,1,97661,6980
Cyp4c3,1,1853,864
thetaTry,1,99637,4130
fliI,1,54506,3339
CG42699,1,7868,736
CG42699,2,1.19e5,5319
lva,1,2031,1032
Klc,1,74905,3417
TrpRS,1,1.17e5,6684
Rab9Db + Rab9Fa,1,1.22e5,5424
Hen1,1,187,46
Hen1,2,87182,4375
POSH,1,1.47e5,5723
CG16952,1,1.45e5,6596

The list goes on, starting with the last 3 of the part before.
Target gene,dsRNA no.,"E2F firefly, rep 1","Renilla normaliser, rep 1"
Hen1,2,87182,4375
POSH,1,1.47e5,5723
CG16952,1,1.45e5,6596
CG16756,1,1.14e5,7466
Mcm5,1,1.58e5,6879
Reepl1,1,1.37e5,6637
CG11664,1,38083,3233
Ugt36D1,1,91259,4101
Syx7,1,72238,3694
CG11737,1,1.42e5,6557
CG13078,1,1.03e5,4501
Hasp,1,77002,3451
CG14632 (retired record),1,1.20e5,5246
Scr,1,92089,5587
CG15071,1,1.43e5,4788
CG1927,1,67981,3572
CG6340,1,1.66e5,6025
PVRAP,1,91387,3559
PVRAP,2,82363,3270
CG5890,1,95739,5688
CG4611,1,95912,4333
Nadsyn,1,7480,896
CG5276,1,1.58e5,6847
Acp32CD,1,1.64e5,5547
CkIalpha,1,1.38e5,5862
Sugb,1,67733,3251
CG34249 (retired record),1,1.34e5,3820
CG7544,1,50171,3662
TwdlS,1,1.16e5,5947
CG3224,1,96913,5969
PrBP,1,1.47e5,4978
eEF1delta,1,72353,3277
CG34171,1,1.30e5,4828
peo,1,2719,193
Glyp,1,45645,3644
CG14315,1,1.62e5,8112
CG16781,1,73478,4248
aru,1,1.68e5,5426
CycA,1,75871,4166
CycA,2,45954,136
stc,1,75631,3002
ctrip,1,1.06e5,6973
ctrip,2,68258,3088
cta,1,75417,3833
eIF2A,1,73258,3445
CG7991,1,92914,3786
CG42680,1,1.47e5,5777
